In the assay the target is Aspartic Protease 1 (OsAsp1), yeast two-hybrid fusion (rice (Oryza sativa)) (UniProt Q0IU52). In words: two-hybrid; pGAD7 prey and pGBK7 bait constructs co-transformed into yeast AH109; growth on SD-Leu-Trp-His, SD-Leu-Trp as control; also with IAA, which inhibited the OsAsp1-OsTIF1 interaction.

These are yes or no findings as the source states them, for the method shown. Some entries that bind do so weakly or less than the wild type. Sequences can lack the tags named with a protein.

B1: Aspartic Protease 1 (OsAsp1), yeast two-hybrid fusion (protein, UniProt Q0IU52 1-410)
chain: MTARLALLASLLLLLQLVPPSSAVVLELHGNVYPIGHFFITMNIGDPAKSYFLDIDTGSTLTWLQCDAPCTNCNIVPHVLYKPTPKKLVTCADSLCTDLYTDLGKPKRCGSQKQCDYVIQYVDSSSMGVLVIDRFSLSASNGTNPTTIAFGCGYDQGKKNRNVPIPVDSILGLSRGKVTLLSQLKSQGVITKHVLGHCISSKGGGFLFFGDAQVPTSGVTWTPMNREHKYYSPGHGTLHFDSNSKAISAAPMAVIFDSGATYTYFAAQPYQATLSVVKSTLNSECKFLTEVTEKDRALTVCWKGKDKIVTIDEVKKCFRSLSLEFADGDKKATLEIPPEHYLIISQEGHVCLGILDGSKEHLSLAGTNLIGGITMLDQMVIYDSERSLLGWVNYQCDRIPRSESAITSRL
As for B1, the binding entry is “binds”.
